Test results taken from patent US6140466.

The chains behind the UniProt entries cited, without tags or fusion partners. Residues count along the entry.
UniProt P03001, 33-123: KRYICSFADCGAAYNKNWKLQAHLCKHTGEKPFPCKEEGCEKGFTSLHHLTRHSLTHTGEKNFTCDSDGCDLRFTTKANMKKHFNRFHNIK

Target: TFIIIA zf1-3 (UniProt P03001)
Test: inhibition of the protein
Settings: represses 5S RNA pol III transcription in Xenopus egg extract; purified recombinant protein; protein details: first three zinc fingers of TFIIIA; only the site is given

“TGGATGGGAGACC (double strand) [5S RNA gene plasmid]” was tested, and the “activity on this sequence” value was “active”.
